PubChem BioAssay AID504744 – Drosophila RNAi Screening Center, 2011
In all, the deposit lists about 23,000 reagents; below is an unselected part of those with a known target gene and a result. In the full data, 98 (0.43%) got an active call. 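Only hit calls are given; the phospho-dAkt signals, z-scores and hit direction were not deposited.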 A plus sign joins genes that one reagent is predicted to hit.

Assay: 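Uncover factors, including feedback loops, that control dAkt activation in fly cells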 (primary screen)
System: Drosophila Kc167 cells
Knock-down reagent: long dsRNA against Drosophila genes, 250 ng dsRNA per well of a 384-well plate
Duration: 3 days of knock-down, then overnight serum-free starvation before stimulation
Conditions: bovine insulin at 387 nM for 10 minutes after 12 h without serum
Read-out: 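In-cell antibody fluorescence for phospho-dAkt in each well over DNA-dye signal, with log2 residuals expressed as z-scores adjusted for cell count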
Rule for the call: 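Hit in the insulin screen when the two-replicate mean z-score is more extreme than plus or minus 2.5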

gene | DRSC id | call
Elba2 | DRSC00731 | inactive
CG30053 | DRSC07260 | inactive
CG1631 | DRSC20535 | inactive
ND-B14 | DRSC07029 | inactive
mdlc | DRSC15690 | inactive
CG10431 | DRSC02055 | inactive
Mrgn1 | DRSC20223 | inactive
CG17036 | DRSC02564 | inactive
Mst89B | DRSC16748 | inactive
CG9372 | DRSC11068 | inactive
Boot | DRSC06412 | inactive
Pdha | DRSC18413 | inactive
CG10035 | DRSC14177 | inactive
CG13228 | DRSC06348 | inactive
CG10859 | DRSC02110 | inactive
Gr64a | DRSC21713 | inactive
Ugt36D1 | DRSC02600 | inactive
Mgat4b | DRSC10256 | inactive
CG12123 | DRSC17818 | inactive
Cpr76Bc | DRSC11062 | inactive
CG5953 | DRSC01546 | inactive
CG5953 | DRSC02914 | inactive
CG9586 | DRSC03270 | inactive
CG5877 | DRSC19963 | inactive
unc-119 | DRSC18846 | inactive
CD98hc | DRSC15453 | inactive
CG14095 | DRSC10098 | inactive
CG4374 | DRSC15570 | inactive
defl | DRSC10300 | inactive
bap | DRSC16908 | inactive
Blos3 | DRSC09573 | inactive
jp | DRSC02213 | inactive
jp | DRSC02744 | inactive
tral | DRSC09779 | inactive
Pex2 | DRSC10770 | inactive
CG7579 | DRSC10885 | inactive
SCCRO | DRSC10844 | inactive
Sptr | DRSC18719 | inactive
Taf12L | DRSC00467 | inactive
Surf1 | DRSC11295 | inactive
Surf1 | DRSC11394 | inactive
CG34150 | DRSC13689 | inactive
Pnn | DRSC16415 | inactive
Mesh1 | DRSC14433 | inactive
Cpr47Eb | DRSC06345 | inactive
CG13442 | DRSC06402 | inactive
Hsf | DRSC07443 | inactive
out | DRSC19347 | inactive
Uro | DRSC03469 | inactive
spartin | DRSC12187 | inactive
lbe | DRSC16985 | inactive
HIPP1 | DRSC11748 | inactive
CG8097 | DRSC20079 | inactive
RanBP3 | DRSC14217 | inactive
Tes | DRSC06996 | inactive
CG17287 | DRSC06659 | inactive
Or42a | DRSC04912 | inactive
P58IPK | DRSC16404 | inactive
pho | DRSC17219 | inactive
CG13869 + CG11099 | DRSC06428 | inactive
CG34228 | DRSC05300 | inactive
toy | DRSC17222 | inactive
CG13036 (retired record) | DRSC09916 | inactive
CG10182 | DRSC14202 | inactive

Part of the list above, set out differently:
gene,DRSC id,call
HIPP1,DRSC11748,inactive
CG8097,DRSC20079,inactive
RanBP3,DRSC14217,inactive
